{"source": "patent US6495584B1", "about": "“Use of 3-(1H-imidazol-4-ylmethyl)-indan-5-ol in the manufacture of a medicament for intraspinal, intrathecal or epidural administration” (Orion Corporation, priority 1998, dated 2002)", "system": "rat", "experiment": "Tail-flick analgesia test", "type": "in vivo", "procedure": "There were 8 rats in each group tested.\nTail-flick analgesia was tested by a tail-flick analgesy meter (Ugo Basile, Italy). The analgesia testing was done no earlier than four days after the catheterization. The rats were always habituated to the immobilization chambers that were used in the analgesia measurements. The tail of the rat was outside the chamber and it was placed on the heating spot of the apparatus. Thus, the hot infrared beam would hit the tail. When the rat reacted and moved the tail away from the beam, the analgesy meter automatically measured the latency of the tail-withdrawal. The tail-flick measurement was always repeated three times, one after another, to diminish the effect of a possible unspecific reaction. […] The maximal latency (cut-off time) was set to 5 seconds in order to prevent burns of the tail. The predrug tail-flick latencies were first measured, and then the rats were administered 10 μl of the drug solution by a Hamilton syringe. Immediately thereafter the catheter was washed with 10 μl of sterile saline, and the tip was sealed by a lighter. […]\nThe tail-flick analgesia data were represented as MPE% values (maximum possible effect %). The tail-flick latencies (mean of three measurements) were calculated as MPE% values as follows: (postdrug latency−predrug latency)/(cut-off time−predrug latency)×100%. […]", "data": [{"smiles": "Oc1ccc2c(c1)C(Cc1c[nH]cn1)CC2", "note": "(centres unmarked) [Compound A, 3-(1H-imidazol-4-ylmethyl)-indan-5-ol]", "values": [{"measurement": "Dose needed for the analgesic effect, intravenous versus intrathecal", "setting": "iv dose relative to it dose", "result": "at least 14 times"}, {"measurement": "Dose needed for the analgesic effect, subcutaneous versus intrathecal", "setting": "sc dose relative to it dose", "result": "at least 142 times"}]}]}
